Measured values: PubChem BioAssay AID540256 (National Center for Advancing Translational Sciences (NCATS), 2011)
Out of some 300,000 compounds screened, about 3,700 (1.2%) were called active. This list was built around the results that the source calls inconclusive (neither active nor inactive); the mix of calls is not that of the screen. Calls come from the whole dose curve; tested in HEK293 cells. Potencies beside an inconclusive call are fits to weak or partial responses and may not hold up.

Assay: qHTS for Inhibitors of binding or entry into cells for Lassa Virus; note: nearly all actives have a fitted effect of over 50% in size
Details: Lassa virus pseudotype entry inhibition, cell reporter; series mostly up to 37.9 µM
Potency is the fitted concentration of half-maximal effect.

Question: Which Potency does the source give for COc1cccc(CN(C)C(=O)c2cc(-c3ccc(OC)c(OC)c3)nc3ccccc23)c1 here?
Answer: The Potency was inconclusive: 35.5 µM [inhibitor, single point].

Question: With Cc1ccccc1NC(=O)c1cnc2ccccn2c1=O as the compound, how does the Potency read?
Answer: Its Potency is inconclusive: 8.2 µM [inhibitor, partial curve, poor fit].

Question: With CC1CCCN(C(=O)COC(=O)c2ccc3[nH]c4c(c3c2)CCCC4)C1 (stereo not drawn) as the compound, how does the Potency read?
Answer: Its Potency is inconclusive: 35.5 µM [inhibitor, single point].

Question: Which Potency does the source give for CC(=O)Nc1ccc(C(=O)OCC(=O)NCc2ccc3c(c2)OCO3)cc1 here?
Answer: The Potency was inconclusive: 8.91 µM [inhibitor, partial curve, poor fit].

Question: For CC(CCc1ccccc1)N1CCN(Cc2ccccc2)CC1 (stereo not drawn), which Potency is on record?
Answer: Its Potency is inconclusive: 12.6 µM [inhibitor, single point].

Question: For Cc1ccc(S(=O)(=O)Nc2ccc(N3CCCCC3)cc2)cc1, which Potency is on record?
Answer: Its Potency is inconclusive: 3.55 µM [inhibitor, partial curve, poor fit].

Question: With COc1ccc(CN2CCN(c3ncnc4scc(-c5ccc(F)cc5)c34)CC2)cc1 as the compound, how does the Potency read?
Answer: The Potency was inconclusive: 17.8 µM [inhibitor, single point].

Question: Which Potency does the source give for Cc1ccc(-n2nnc3ccccc3c2=O)cc1C here?
Answer: The Potency was “inactive”.

Question: Which Potency does the source give for COc1cccc(C2C3=C(N=c4s/c(=C\c5cccc(O)c5)c(=O)n42)c2ccccc2CC3)c1OC (stereo not drawn) here?
Answer: Its Potency is inconclusive: 35.5 µM [inhibitor, single point].

Question: Which Potency does the source give for Nc1ccc(NC(=O)c2cccs2)c(Cl)c1 here?
Answer: Its Potency is “inactive”.

Question: For COc1ccc(C2C=C(c3ccccc3)Nc3nc(NC(=O)/C=C/c4ccc(Cl)cc4)nn32)cc1 (stereo not drawn), which Potency is on record?
Answer: The Potency was “inactive”.

Question: Which Potency does the source give for COc1cccc(Nc2c3c(nc4c(-c5ccccc5)c(C)nn24)CCC3)c1 here?
Answer: The Potency was inconclusive: 11.2 µM [inhibitor, partial curve, poor fit].

Question: For CCC1CCCCN1C(=O)c1cc(-c2ccc(Cl)c(Cl)c2)on1 (stereo not drawn), which Potency is on record?
Answer: The Potency was “inactive”.

Question: Which Potency does the source give for NC(=O)CSc1nnc(-c2cccnc2)n1Cc1ccccc1 here?
Answer: The Potency was inconclusive: 18.3 µM [inhibitor, single point].

Question: With CCCCN1CC(N2CCN(C3CCN(C)CC3)CC2)CS1(=O)=O (stereo not drawn) as the compound, how does the Potency read?
Answer: The Potency was inconclusive: 0.995 µM [inhibitor, full curve, poor fit].

Question: For COc1cc(OC)c(CN2CCCN(C)CC2)cc1Br, which Potency is on record?
Answer: The Potency was inconclusive: 35.5 µM [inhibitor, single point].

Question: Which Potency does the source give for CN1C(=O)CSc2ccc(NC(=O)NCc3ccco3)cc21 here?
Answer: Its Potency is inconclusive: 20.6 µM [inhibitor, partial curve, poor fit].

Question: With CCCCC(=O)Nc1ccc2oc(-c3cccnc3)nc2c1 as the compound, how does the Potency read?
Answer: The Potency was inconclusive: 14.1 µM [activator, partial curve, poor fit].

Question: For Cc1ccc(NC(=O)c2c(Cl)nc3ccccn23)cc1, which Potency is on record?
Answer: The Potency was inconclusive: 35.5 µM [inhibitor, single point].

Question: Which Potency does the source give for O=C(Oc1ccc2ccccc2c1Br)N1CCCCCC1 here?
Answer: Its Potency is active: 3.26 µM.

Question: With CCOc1ccc(N2CC(c3nc4ccccc4n3CCOc3ccccc3)CC2=O)cc1 (stereo not drawn) as the compound, how does the Potency read?
Answer: The Potency was “inactive”.

Question: For Cc1nc2ccc(N)cc2c(=O)n1Cc1ccc(Cl)cc1, which Potency is on record?
Answer: Its Potency is inconclusive: 23.1 µM [activator, single point].

Question: Which Potency does the source give for O=C(Nc1cccc(F)c1)Nc1ccnn1C1CCN(C(=O)CCN2CCCO2)CC1 here?
Answer: The Potency was “inactive”.

Question: With COc1ccc(N2CCN(C(=O)c3cccc(S(=O)(=O)N4CCc5ccccc54)c3)CC2)cc1 as the compound, how does the Potency read?
Answer: The Potency was inconclusive: 22.4 µM [inhibitor, single point].

Question: Which Potency does the source give for O=C(COc1ccccc1Cl)Nc1ccc2c(c1)OCO2 here?
Answer: Its Potency is inconclusive: 20 µM [activator, partial curve, poor fit].

Question: Which Potency does the source give for Fc1ccc(CNC(=S)Nc2cccc(C(F)(F)F)c2)cc1 here?
Answer: The Potency was inconclusive: 29.1 µM [inhibitor, single point].

Question: Which Potency does the source give for CCCNC(=O)c1cc2nc(-c3ccccc3)cc(C(F)(F)F)n2n1 here?
Answer: The Potency was “inactive”.

Question: With Cc1ccc(C(=O)NCC(c2cccnc2)N2CCc3ccccc3C2)cc1C (stereo not drawn) as the compound, how does the Potency read?
Answer: The Potency was inconclusive: 2 µM [activator, partial curve, poor fit].

Question: For O=C(Nc1cccc(Cl)c1N1CCCCC1)c1ccc2c(c1)OCCO2, which Potency is on record?
Answer: The Potency was inconclusive: 4.47 µM [inhibitor, partial curve, poor fit].

Question: For Cc1cccc(NC(=O)CCNC(=O)c2ccc(Br)cc2)c1C, which Potency is on record?
Answer: The Potency was inconclusive: 1 µM [inhibitor, full curve, poor fit].

Question: For Cc1ccc(NC(=O)Cn2c(=O)n(Cc3ccccc3)c(=O)c3c2c2cc(C)ccc2n3C)cc1, which Potency is on record?
Answer: The Potency was “inactive”.

Question: With Cc1ccc(-c2nnc(SCC(=O)N/N=C/c3ccc(C)s3)n2-c2ccccc2)cc1 as the compound, how does the Potency read?
Answer: Its Potency is active: 15.8 µM.

Question: With Cc1ccc(NC(=O)COC(=O)/C=C/c2ccco2)cc1S(=O)(=O)N(C)C as the compound, how does the Potency read?
Answer: The Potency was “inactive”.

Question: For Cc1ccc(Cl)cc1NS(=O)(=O)c1ccc(N2CCCCS2(=O)=O)cc1, which Potency is on record?
Answer: Its Potency is “inactive”.

Question: With Cc1nc(-c2ccc(F)cc2)sc1CCNC(=O)c1ccc(C(C)(C)C)cc1 as the compound, how does the Potency read?
Answer: The Potency was inconclusive: 8.91 µM [inhibitor, partial curve, poor fit].

Question: Which Potency does the source give for FC(F)(F)c1nc(-c2ccccc2)ncc1-c1nnnn1-c1ccccc1 here?
Answer: Its Potency is inconclusive: 20 µM [inhibitor, single point].

Question: With O=C(N/N=C/c1cn(-c2ccccc2)nc1-c1cc2ccccc2o1)c1c[nH]c2ccccc12 as the compound, how does the Potency read?
Answer: The Potency was inconclusive: 3.16 µM [activator, partial curve, poor fit].

Question: With CCOC(=O)NC(=O)/C(C#N)=N\Nc1cccc(Cl)c1 as the compound, how does the Potency read?
Answer: The Potency was inconclusive: 35.5 µM [inhibitor, single point].

Question: For O=C(COc1ccc(Br)cc1)NNC(=O)c1cc(S(=O)(=O)N2CCOCC2)ccc1Cl, which Potency is on record?
Answer: The Potency was “inactive”.

Question: With CCn1cc(Cl)c(C(=O)NNC(=O)CCn2nc(C)c([N+](=O)[O-])c2C)n1 as the compound, how does the Potency read?
Answer: The Potency was inconclusive: 29.1 µM [inhibitor, single point].

Question: For O=C(CSc1cccc[n+]1[O-])c1cccs1, which Potency is on record?
Answer: The Potency was inconclusive: 7.08 µM [activator, partial curve, poor fit].

Question: For COc1ccc(C(=O)Nc2cc(OC)nc(OC)n2)cc1, which Potency is on record?
Answer: The Potency was inconclusive: 35.5 µM [inhibitor, single point].

Question: Which Potency does the source give for O=C(O)c1ccccc1C(=O)NCc1c(Cl)cccc1Sc1ccc(Cl)cc1 here?
Answer: Its Potency is “inactive”.
